Measured values reported in PubChem BioAssay (EPA / NIEHS).
Inconclusive means that the source gave no clear call. Such entries were picked first, then a sample of the others. Where the call is inconclusive, the potency comes from a doubtful curve fit. A structure can be active in one record and inactive in another. Active and inactive are the calls of the source. How the source made its calls: active means hit-call score of the fitted dose curve at least 0.9, where 1 is the maximum; inconclusive means response in the unintended direction; inactive means score below 0.9.

The chains behind the UniProt entries cited, without tags or fusion partners. Where a name states a change or a piece, a line headed by the entry shows the natural chain unless it says otherwise.
UniProt O75469: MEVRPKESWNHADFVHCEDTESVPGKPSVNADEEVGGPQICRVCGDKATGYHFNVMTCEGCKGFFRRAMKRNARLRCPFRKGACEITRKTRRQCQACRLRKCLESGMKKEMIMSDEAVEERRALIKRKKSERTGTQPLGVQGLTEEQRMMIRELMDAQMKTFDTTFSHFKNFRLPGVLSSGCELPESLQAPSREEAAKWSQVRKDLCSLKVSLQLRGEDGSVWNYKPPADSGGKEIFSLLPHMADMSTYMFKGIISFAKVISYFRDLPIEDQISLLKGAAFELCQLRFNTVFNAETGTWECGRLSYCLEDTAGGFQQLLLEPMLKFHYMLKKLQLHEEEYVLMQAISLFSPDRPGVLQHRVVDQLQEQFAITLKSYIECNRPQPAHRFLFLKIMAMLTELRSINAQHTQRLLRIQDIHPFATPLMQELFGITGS

Each compound was assayed against Nuclear receptor subfamily 1 group I member 2 (Homo sapiens) (UniProt O75469) (assay: ATG_PXR_TRANS: Attagene TRANS-FACTORIAL HepG2 Assay for human Pregnane X Receptor (PXR) (AID 2283008)).
Summary of the method: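 HepG2 transfected (FuGene 6) with GAL4-UAS reporter units + PXR-Gal4 chimera; dosed 24 h. Total RNA → oligo(dT) RT → PCR → 6-FAM primer extension → HpaI cut → CE. Gain-of-signal vs DMSO.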

Row | Structure (SMILES) | AC50 | outcome
2 | Nc1c(Cl)c(Cl)nc(C(=O)O)c1Cl | inconclusive: 50 µM | 
3 | C[C@H]1O[C@@H](O[C@H]2[C@@H](O)C[C@H](O[C@H]3[C@@H](O)C[C@H](O[C@H]4CC[C@@]5(C)[C@H](CC[C@@H]6[C@@H]5CC[C@]5(C)[C@@H](C7=CC(=O)OC7)CC[C@]65O)C4)O[C@@H]3C)O[C@@H]2C)C[C@H](O)[C@@H]1O | inconclusive: 68.5 µM | 
4 | ClC1=C(Cl)[C@]2(Cl)[C@H]3[C@H]([C@@H]4C=C[C@H]3C4)[C@@]1(Cl)C2(Cl)Cl | active: 9.08 µM | 
5 | CC(=O)C(Cl)C(=O)N(C)C (stereo not drawn) |  | inactive
7 | c1nc[nH]n1 |  | inactive
8 | CCOc1nc(F)cc2nc(S(=O)(=O)Nc3c(Cl)cccc3Cl)nn12 |  | inactive
